Article PMC10304164, “Laurequinone, a Lead Compound against Leishmania” (Marine Drugs, 2023)

Experiments:
[1] = system: Leishmania amazonensis promastigotes; test: Alamar Blue assay against promastigotes; format: cell-based; details: CC50 murine macrophages / IC50 promastigotes
Procedure: Leishmania amazonensis (MHOM/BR/77/LTB0016) promastigotes were cultured in RPMI 1640 medium (Gibco, Waltham, MA, USA), supplemented with 10 % FBS at 26 °C. Additionally, for maintenance, the promastigotes were cultured in SND medium (Sigma-Aldrich, Darmstadt, Germany) supplemented with 10 % FBS at 26 °C. Both media were supplemented with gentamicin at 10 µg/mL.
Compounds 1–5 were tested against promastigotes of Leishmania amazonensis using the colorimetric assay based on the Alamar Blue® reagent. In a 96-well plate, serial dilutions of the compounds and the promastigote form of the parasite (10^6 cells/mL) were added at a final volume of 200 µL.

[2] = system: L. amazonensis intracellular amastigotes; test: Alamar Blue assay against intracellular amastigotes in murine macrophages; format: cell-based, Leishmania amazonensis; details: CC50 murine macrophages / IC50 amastigotes
Procedure: Briefly, in a 96-well plate, murine macrophages (2 × 10^5 cells/mL) were incubated in RPMI medium at 37 °C and 5 % CO2 atmosphere for 2–4 h. Promastigote forms of L. amazonensis (2 × 10^6 cells/mL) were added to reach a 1:10 macrophage:parasite ration, and after 24 h of incubation, the cells were washed to discard the not-introduced parasites. Serial dilutions of the compound were added in 100 µL of RPMI medium. Following 24 h of incubation, the plate was washed, and the cells were broken with SDS 0.05% for 30 s. Fresh medium was added, and 48 h later, 10% Alamar Blue® reagent was added.

## C=C1[C@@H](C)CC[C@@]1(C)c1cc(Br)c(C)cc1O [Isolaurinterol (4), isolaurinterol]
[1]
  SI (promastigotes): 2.4

## Cc1cc2c(cc1Br)[C@]1(C)CC[C@H](C)[C@]1(C)O2 [Aplysin (5), aplysin]
[1]
  SI (promastigotes): 20.3

## Cc1cc(O)c([C@]2(C)CC[C@@H]3C[C@@]32C)cc1Br [Laurinterol (2), laurinterol]
[2]
  SI (amastigotes): 2.3
[1]
  SI (promastigotes): 2.3
